Laboratory results published in patent US20260209365A1, “ANTI-COMMON GAMMA CHAIN PROTEINS AND COMPOSITIONS OF MATTER” (SINOMAB BIOSCIENCE LIMITED, priority 2023, published 2026).

How the values were obtained:
[1] = molecular target: common marmoset γc protein (extracellular domain), purified (common marmoset (Callithrix jacchus)); assay: BLI (Octet RED96), antibody 20 µg/mL captured on anti-human IgG biosensors, common marmoset γc as analyte
[2] = molecular target: common marmoset γc protein (extracellular domain), purified (common marmoset (Callithrix jacchus)); assay: ELISA, plate coated with 1 µg/ml γc protein
[3] = molecular target: common marmoset γc protein (extracellular domain), purified (common marmoset (Callithrix jacchus)); assay: BLI (Octet), antibody captured on anti-human IgG biosensor, γc protein in solution

Measured: binding

B1: hSM-05A, humanized anti-γc antibody with back-mutation (antibody, V domains shown)
VH: QVQLVQSGAEVLKPGASVKVSCKASGYTFTEYTMHWVKQARGQRLEWIGGIDPYNGGATYNQRFKGKATLTTDTSTSTAYMELRNLRSDDTAVYYCARRRLYYGNALDYWGQGTLVTVSS
VL: DIVMTQSPLSLPVTPGEQASISCRSSQSLVHSNGNTYLHWYLQKPGQSPQLLIYKVSSRFSGVPDRFSGSGSGTDFTLKISRVEAEDVGVYFCSQTTHVPFTFGSGTKLEIKR
binds: [1] | [2] | [3]

B2: hSM-05E, humanized anti-γc antibody with back-mutation (antibody, V domains shown)
VH: B1 VH with Y54N, N55T, A58V, R63K, L101R, N105Y
VL: B1 VL with L29I, H39E, S58N, T96S, T102M
binds: [1] | [2] | [3]

Where a chain is given by its changes, count along the chain named. Results are given in words; binding and its absence hold for the method and conditions named. Binding calls can cover weak binding; strength is not graded here.
